Reference: PubChem BioAssay AID1259308 (NCATS, 2017)
Test: 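Knock-downs that increase output of a recombinant reporter protein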 (primary screen). System: human HEK293 embryonic kidney cells stably expressing firefly luciferase (HEK-CMV-Luc2-Hygro). Knock-down reagent: single siRNA against human genes, 0.8 pmol siRNA per well. Timing: 72 h. Measurement: 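Luciferase light (ONE-Glo) measured on one replicate plate set and viability (CellTiter-Glo) on the other, scaled to a negative control siRNA, with robust z-scores and luciferase per cell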. Scale: total luciferase, z-score and total luciferase, % of control: higher = more reporter protein produced. Call rule: 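An siRNA counts as active if its total luciferase robust z-score exceeds 3; genes with two or more such siRNAs out of three were retested with fresh siRNAs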. Meaning of the calls: active = raised luciferase; inactive = no rise.
Here is an unselected part of about 59,000 reagents. About 1,510 of all reagents (2.6%) were called active. 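Calls use total luciferase alone and ignore viability, so some active siRNAs may act by altering cell number.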 Entries without a mark were called inactive. The numbers tell different reagents against one gene apart. Not all columns of the deposit are shown. No sequences are given here.

With knock-down of WIPF2 #1, the screen gave total luciferase, z-score -0.378; total luciferase, % of control 74.4.
Against WIPF2 #2, the values are total luciferase, z-score -0.742; total luciferase, % of control 67.1.
After knock-down of WIPF2 #3, the record shows total luciferase, z-score 0.192; total luciferase, % of control 85.7.
Against LRRC27 #1 the deposit lists total luciferase, z-score 2.33; total luciferase, % of control 128.
Silencing of LRRC27 #2 came out at: total luciferase, z-score -0.328; total luciferase, % of control 75.4.
Depletion of LRRC27 #3 gave: total luciferase, z-score -0.785; total luciferase, % of control 66.3.
With knock-down of RTP4 #1, the screen gave total luciferase, z-score -0.236; total luciferase, % of control 77.2.
Against RTP4 #2 the deposit lists total luciferase, z-score -0.773; total luciferase, % of control 66.5.
After knock-down of RTP4 #3, the screen gave total luciferase, z-score 1.73; total luciferase, % of control 116.
Against BNC2 #1, the values are total luciferase, z-score 1.11; total luciferase, % of control 104.
BNC2 #2 gave total luciferase, z-score -0.499; total luciferase, % of control 72.
Silencing of BNC2 #3 resulted in: total luciferase, z-score 0.128; total luciferase, % of control 84.4.
After knock-down of ULK3 #1, the record shows total luciferase, z-score -1.66; total luciferase, % of control 48.9.
ULK3 #2 gave total luciferase, z-score 1.11; total luciferase, % of control 104.
ULK3 #3 gave total luciferase, z-score -0.341; total luciferase, % of control 75.1.
For LRRFIP2 #1, the entry reads total luciferase, z-score 2.21; total luciferase, % of control 126.
For LRRFIP2 #2, the entry reads total luciferase, z-score 0.383; total luciferase, % of control 89.5.
With knock-down of LRRFIP2 #3 the results were total luciferase, z-score -0.899; total luciferase, % of control 64.
OR7G3 #1 showed total luciferase, z-score 2.65; total luciferase, % of control 135.
OR7G3 #2 showed total luciferase, z-score 0.463; total luciferase, % of control 91.1.
After knock-down of OR7G3 #3, the record shows total luciferase, z-score 2.5; total luciferase, % of control 132.
Against C1QTNF9B #1 the deposit lists total luciferase, z-score -1.05; total luciferase, % of control 61.1.
Against C1QTNF9B #2, the entry reads total luciferase, z-score 0.712; total luciferase, % of control 96.
After knock-down of C1QTNF9B #3, the record shows total luciferase, z-score -1.67; total luciferase, % of control 48.7.
Against RASL10B #1 the deposit lists total luciferase, z-score 0.952; total luciferase, % of control 101.
With knock-down of RASL10B #2, the record shows total luciferase, z-score -0.463; total luciferase, % of control 72.7.
After knock-down of RASL10B #3, the record shows total luciferase, z-score -0.431; total luciferase, % of control 73.3.
Against MICU1 #1, the values are total luciferase, z-score -0.459; total luciferase, % of control 72.8.
After knock-down of MICU1 #2, the record shows total luciferase, z-score -0.697; total luciferase, % of control 68.
For MICU1 #3, the values are total luciferase, z-score -0.233; total luciferase, % of control 77.2.
For CLDN17 #1, the entry reads total luciferase, z-score -1.77; total luciferase, % of control 46.8.
For CLDN17 #2, the entry reads total luciferase, z-score 2.19; total luciferase, % of control 125.
Against CLDN17 #3, the entry reads total luciferase, z-score 0.363; total luciferase, % of control 89.1.

Reformatted: 4 of the entries above.
| target | reagent no. | total luciferase, z-score | total luciferase, % of control |
| --- | --- | --- | --- |
| RTP4 | 1 | -0.236 | 77.2 |
| RTP4 | 2 | -0.773 | 66.5 |
| RTP4 | 3 | 1.73 | 116 |
| BNC2 | 1 | 1.11 | 104 |
